Drawing on PubChem BioAssay AID248 (DTP/NCI, 2004), this text covers survivor count and T/C for eleven molecules.

SMILES strings stand for the structures. The list is a part of this screen's results and no random one: it gathers tests that were run many times, whatever their T/C, doses with no T/C, and many T/C values between a quarter and a half above the control. Other doses and runs of a compound stand elsewhere. T/C: endpoint of the treated group in % of that of the vehicle group. Some entries give survivors of the animals treated and no T/C: the source files T/C as zero there, which appears to mark a toxic dose or a test without result, not a measured value. Some survivor counts are full or nearly so, which does not show that the dose was tolerated: the source hardly ever lists a survival T/C far under the control, and the zero likely stands for such cases as well. Survivors were counted at the toxicity check, usually on the fifth day, unless a day is given; later deaths do not show. Schedule codes are those of the source, read here as Q, the interval in days (D) or hours (H), X, the number of doses. Some schedule codes hold Z or #, which are not explained here. Some structures stand for samples that the source files as different forms (salt, stereo form or complex); doses refer to the form tested. Some entries hold several experiments; the results are listed from low to high. For survival time, this PubChem deposit counts one and a half times the control or more as active, and values a quarter to a half above the control carry no call in these data; other NCI protocols may use other cut-offs.

This experiment relates to L1210 leukemia ip in BDF1 mice, survival T/C. In words: NCI In Vivo Anticancer Drug Screen. Data for tumor model L1210 Leukemia (intraperitoneal) in B6D2F1 (BDF1) mice. To be noted: higher T/C = longer survival.
[1] abbreviates: T/C endpoint: mean survival time, dose: 400.0 mg/kg/injection, schedule: Q01DX001 (ip), vehicle: saline.
Setting [2] is: T/C endpoint: mean survival time, dose: 25.0 mg/kg/injection, schedule: Q04DX003 (ip), vehicle: saline.
[3] abbreviates: T/C endpoint: mean survival time, dose: 100.0 mg/kg/injection, schedule: Q01DX001 (ip), vehicle: saline.
The mark [4] stands for this setting: T/C endpoint: mean survival time, dose: 200.0 mg/kg/injection, schedule: Q01DX001 (ip), vehicle: saline.

Consider `NC(N)=NNc1ccccc1`, for which, for the setting “T/C endpoint: mean survival time, dose: 200.0 mg/kg/injection, schedule: Q01DX009 (ip), vehicle: saline”, the survivor count is reported as 1 of 3.
As to `CCOC(=O)C(C(=O)O)C(C)C` (stereo unspecified), under setting [1], the survivor count is recorded as 2 of 6.
On to `Oc1cc(-c2cc(O)c(O)c(O)c2)cc(O)c1O`, for which the survivor count (T/C endpoint: mean survival time, dose: 400.0 mg/kg/injection, schedule: Q01DX009 (ip), vehicle: saline with Tween-80) is reported as 0 of 6.
As for `Cc1ccccc1[P+](Cc1ccccc1)(c1ccccc1C)c1ccccc1C`, the survivor count is listed as 0 of 6 (T/C endpoint: mean survival time, dose: 75.0 mg/kg/injection, schedule: Q01DX001 (ip), vehicle: carboxymethylcellulose (CMC)); 0 of 6 (T/C endpoint: mean survival time, dose: 150.0 mg/kg/injection, schedule: Q01DX001 (ip), vehicle: carboxymethylcellulose (CMC)); 0 of 6 (T/C endpoint: mean survival time, dose: 300.0 mg/kg/injection, schedule: Q01DX001 (ip), vehicle: carboxymethylcellulose (CMC)).
Regarding `C=C(CCCCCCCCCCCCCCCC)C(=O)O`, the survivor count (T/C endpoint: mean survival time, dose: 200.0 mg/kg/injection, schedule: Q04DX002 (ip), vehicle: saline with Tween-80) is recorded as 3 of 3.
`COc1ccc2nc3cc(Cl)ccc3c(NCCCCN(C)C)c2c1`: the survivor count runs as follows: under setting [2], 1 of 6; under setting [3], 2 of 6; under setting [4], 0 of 6; under setting [1], 0 of 6.
As to `CCOC(C)C(/C=N/NC(N)=S)=NNC(N)=S` (stereo unspecified), the survivor count by setting is: (T/C endpoint: mean survival time, dose: 120.0 mg/kg/injection, schedule: Q01DX010 (ip), vehicle: saline) 6 of 6; (T/C endpoint: mean survival time, dose: 240.0 mg/kg/injection, schedule: Q01DX Z (ip), vehicle: carboxymethylcellulose (CMC)) 2 of 6; (T/C endpoint: mean survival time, dose: 480.0 mg/kg/injection, schedule: Q01DX Z (ip), vehicle: carboxymethylcellulose (CMC)) 0 of 6; (T/C endpoint: mean survival time, dose: 480.0 mg/kg/injection, schedule: Q01DX Z (oral), vehicle: carboxymethylcellulose (CMC)) 0 of 6.
Regarding `O=C1C=CC(=NCC(=O)OCc2ccccc2)O1`, the survivor count (T/C endpoint: mean survival time, dose: 100.0 mg/kg/injection, schedule: Q04DX003 (ip), vehicle: acetone) is reported as 6 of 6.
In the case of `O=C(CCCN1CCC2(CC1)C(=O)NCN2c1ccccc1)c1ccc(F)cc1`, the T/C under setting [2] was 125 % of control. For the same molecule, the survivor count is given as 4 of 4 (T/C endpoint: mean survival time, dose: 100.0 mg/kg/injection, schedule: Q04DX003 (ip), vehicle: saline) and 3 of 4 (T/C endpoint: mean survival time, dose: 400.0 mg/kg/injection, schedule: Q04DX003 (ip), vehicle: saline).
For the molecule `CO[C@H](C(=O)[C@@H](O)[C@@H](C)O)[C@@H]1Cc2cc3cc(OC4CC(OC5CC(O)C(O)C(C)O5)C(O)C(C)O4)c(C)c(O)c3c(O)c2C(=O)[C@H]1OC1CC(OC2CC(OC3CC(C)(O)C(O)C(C)O3)C(O)C(C)O2)C(O)C(C)O1` (stereo partly specified), the survivor count is recorded as 0 of 6 (T/C endpoint: mean survival time, dose: 1.0 mg/kg/injection, schedule: Q01DX001 (ip), vehicle: water); 2 of 4 (T/C endpoint: mean survival time, dose: 1.0 mg/kg/injection, schedule: Q01DX001 (iv), vehicle: water); 1 of 6 (T/C endpoint: mean survival time, dose: 2.0 mg/kg/injection, schedule: Q01DX001 (ip), vehicle: water); 2 of 6 (T/C endpoint: mean survival time, dose: 2.0 mg/kg/injection, schedule: Q01DX Z (ip), vehicle: saline); 1 of 6 (T/C endpoint: mean survival time, dose: 2.5 mg/kg/injection, schedule: Q01DX001 (ip), vehicle: saline); 2 of 4 (T/C endpoint: mean survival time, dose: 4.0 mg/kg/injection, schedule: Q01DX001 (ip), vehicle: saline). Besides, the survivor count is 3 of 6 (T/C endpoint: mean survival time, dose: 5.0 mg/kg/injection, schedule: Q01DX001 (ip), vehicle: saline); 2 of 6 (T/C endpoint: mean survival time, dose: 10.0 mg/kg/injection, schedule: Q01DX001 (ip), vehicle: saline); 0 of 4 and 1 of 6 (T/C endpoint: mean survival time, dose: 20.0 mg/kg/injection, schedule: Q01DX001 (ip), vehicle: saline); 0 of 4 (T/C endpoint: mean survival time, dose: 40.0 mg/kg/injection, schedule: Q01DX001 (ip), vehicle: saline); 0 of 4 (T/C endpoint: mean survival time, dose: 50.0 mg/kg/injection, schedule: Q01DX001 (ip), vehicle: saline); 0 of 4 (T/C endpoint: mean survival time, dose: 80.0 mg/kg/injection, schedule: Q01DX001 (ip), vehicle: saline). Further, the survivor count runs as follows: under setting [3], 0 of 4; under setting [4], 0 of 4; under setting [1], 0 of 4; (T/C endpoint: mean survival time, dose: 2000.0 micrograms/kg/injection, schedule: Q01DX009 (ip), vehicle: clinical formulation) 3 of 10; (T/C endpoint: mean survival time, dose: 2000.0 micrograms/kg/injection, schedule: Q01DX009 (ip), vehicle: saline) 2 of 10; (T/C endpoint: median survival time, dose: 2.0 mg/kg/injection, schedule: Q01DX009 (ip), vehicle: saline) 2 of 6 and 3 of 6. Further, under “T/C endpoint: median survival time, dose: 1.0 mg/kg/injection, schedule: Q01DX009 (ip), vehicle: saline”, the T/C was 127 and 137 % of control.
On to `C1=C\C[n+]2ccccc2-c2cccc[n+]2C/1`, for which the survivor count is, setting by setting: (T/C endpoint: mean survival time, dose: 75.0 mg/kg/injection, schedule: Q01DX001 (ip), vehicle: saline) 0 of 6; (T/C endpoint: mean survival time, dose: 150.0 mg/kg/injection, schedule: Q01DX001 (ip), vehicle: saline) 0 of 6; (T/C endpoint: mean survival time, dose: 300.0 mg/kg/injection, schedule: Q01DX001 (ip), vehicle: saline) 0 of 6.
